Test results as given in article PMC6889490, “General structural features that regulate integrin affinity revealed by atypical αVβ8” (Nature Communications, 2019).
“Also recorded” adds a separate entry of the source.

What was measured:
[1] = tested on: αVβ8 headpiece; assay: Crystal soaking, ligand-induced residue movement, αVβ8; details: 1 mM peptide, 10 mM Mg2+, 2 mM Ca2+
[2] = tested on: αVβ6 headpiece; assay: Hydrogen-deuterium exchange MS, αVβ6 headpiece; details: 21 °C
[3] = tested on: αVβ8 headpiece; assay: Hydrogen-deuterium exchange MS, αVβ8 headpiece; details: 21 °C
Description: Two microliters of αVβ6 and αVβ8 stock solutions (23 and 33 µM, respectively), either alone or mixed with 100 µM TGF-β1 ligand peptide, were diluted 15-fold (to 1.53 and 2.20 µM, αVβ6 and αVβ8, respectively, and 6.67 µM TGF-β1 ligand peptide) with labeling buffer (Supplementary Table 1) at 21 °C to initiate deuterium exchange. […] At time points from 10 s to 240 m, an aliquot was removed and an equal volume of quench buffer (Supplementary Table 1) was added to adjust the pH to 2.5. Each sample (46 pmol αVβ6 or 66 pmol αVβ8) was immediately subjected to liquid chromatography-mass spectrometry analysis as described in the next paragraphs and in our PRIDE submission (PXD014348). For binding experiments, protein and ligand were allowed to equilibrate for 20 min at 21 °C before deuterium labeling.
Deuterated and control samples were digested in solution with pepsin (10 mg/ml, Sigma P6887; Lot#SLBL1721V) for 5 min on ice, and then injected into an M-class Acquity UPLC with HDX technology (Waters)[32]. The cooling chamber of the UPLC system, which housed all the chromatographic elements was held at 0.0 ± 0.1 °C for the entire time of the measurements. The injected peptides were trapped and desalted for 3 min at 100 µl/min using a BEH C18 2.1 × 5 mm^2 column (Waters, 186003975) and then separated in 14 min by a 5–40% acetonitrile:water gradient at 40 µl/min. The separation column was a 1.0 × 100.0 mm^2 Acquity UPLC C18 BEH (Waters, 186002346) containing 1.7 µm particles. The back pressure averaged 8800 psi at 0.1 °C[33]. The error of determining the deuterium levels was ±0.15 Da in this experimental setup. To eliminate peptide carryover, a wash solution of 1.5 M GnHCl, 0.8% formic acid, and 4% acetonitrile was injected after each run.
Mass spectra were acquired using a Waters Synapt G2-Si HDMS^E mass spectrometer in ion mobility mode. A conventional electrospray source was used and the instrument was scanned over the range 100 to 1900m/z. The instrument configuration was the following: capillary was 3.2 kV, trap collision energy at 6 V, sampling cone at 35 V, source temperature of 80 °C, and desolvation temperature of 175 °C. All comparison experiments were done under identical experimental conditions such that deuterium levels were not corrected for back-exchange and are therefore reported as relative.
Peptides were identified using PLGS 3.0.1 (Waters, 720001408EN) using six replicates of undeuterated αVβ6 and six replicates of undeuterated αVβ8. […] The relative amount of deuterium in each peptide was determined by subtracting the centroid mass of the undeuterated form of each peptide from the deuteratered form, at each time point, for each condition. […]

[4] = tested on: αVβ8-mut3 headpiece; assay: Negative stain EM headpiece opening, αVβ8-mut3; details: 1 mM Mn2+/0.2 mM Ca2+
[5] = αV β-propeller, C-terminal half of region between Tyr-178 and Asp-218, 10 s to 4 h, triplicate

## G^213RRGDLATIHG^223 [TGF-β1 ligand peptide]
[1]
  distance of S5 Cα from its position in fully open αIIbβ3: ≤ 1.1 Å
  movement of β-MIDAS D/N8 equivalent Asn-119 on ligand soaking: 1.8 Å
[2]; SDL2
  effect of ligand binding on deuterium exchange: greatly decreased exchange
[2]; SDL3
  effect of ligand binding on deuterium exchange: slowed exchange
[2]; α1-helix, early time points
  effect of ligand binding on deuterium exchange: decreased at early time points
[2]; [5]
  effect of ligand binding on deuterium exchange: slowed the exchange
[3]; SDL2
  effect of ligand binding on deuterium exchange: greatly decreased exchange
[3]; SDL3
  effect of ligand binding on deuterium exchange: slowed exchange
[3]; α1-helix, 10 s
  effect of ligand binding on deuterium exchange: augmented at 10 s
[3]; [5]
  effect of ligand binding on deuterium exchange: slowed the exchange

## pro-TGF-β1: Human pro-TGFβ-1 with a R249A cleavage site mutation
[4]
  headpiece conformation when bound to pro-TGF-β1: remained closed; also recorded: neither mutant showed the open headpiece
